Construct, isoform or probe ends are uncertain for at least one entry. For some assays here: Where cells or extracts were used, other partners may take part. For some assays here: Negatives hold for the conditions tested. For some assays here: At least one verdict rests on a figure or table, not on a statement of the authors.

By UniProt entry, the sequences of proteins in these tests, tags left out. Where a name states a change or a piece, a line headed by the entry shows the natural chain unless it says otherwise. Residues count along the entry.
UniProt Q08050, 225-355: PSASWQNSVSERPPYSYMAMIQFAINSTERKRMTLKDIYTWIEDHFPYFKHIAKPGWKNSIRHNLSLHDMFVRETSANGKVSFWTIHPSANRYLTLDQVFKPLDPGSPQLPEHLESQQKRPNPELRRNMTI
UniProt Q9Y261: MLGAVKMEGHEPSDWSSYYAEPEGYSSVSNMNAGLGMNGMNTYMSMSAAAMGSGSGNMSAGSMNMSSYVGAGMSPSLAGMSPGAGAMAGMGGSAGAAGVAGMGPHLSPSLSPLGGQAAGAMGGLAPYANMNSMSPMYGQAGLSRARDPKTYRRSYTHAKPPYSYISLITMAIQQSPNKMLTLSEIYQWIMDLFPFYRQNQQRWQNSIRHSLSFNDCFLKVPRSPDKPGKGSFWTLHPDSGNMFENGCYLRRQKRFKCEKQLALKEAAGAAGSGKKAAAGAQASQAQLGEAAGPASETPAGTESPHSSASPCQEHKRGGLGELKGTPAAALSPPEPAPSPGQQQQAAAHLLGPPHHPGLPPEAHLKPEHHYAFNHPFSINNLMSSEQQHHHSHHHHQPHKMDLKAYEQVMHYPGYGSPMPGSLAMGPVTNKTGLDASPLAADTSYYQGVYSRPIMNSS

Data on three sequences can be found in paper PMC5371818, “Suppression of FOXM1 Transcriptional Activities via a Single-Stranded DNA Aptamer Generated by SELEX”.

Data set [1] has as its target FOXM1 (pCMV-FOXM1 HEK293T lysate) (UniProt Q08050). The data set is described as follows: pull-down. The conditions noted are these: phosphorothioate internucleotide linkages; protein in a lysate after overexpression; label: biotin; single-stranded DNA.
Data set [2] has as its target FOXA2 (pCMV-FOXA2 HEK293T lysate) (UniProt Q9Y261). The data set is described as follows: pull-down. To be noted: phosphorothioate internucleotide linkages; protein in a lysate after overexpression; label: biotin; single-stranded DNA.
Data set [3] addresses FOXA2 endogenous (MDA-MB-436) (UniProt Q9Y261). The data set is described as follows: pull-down. To be noted: phosphorothioate internucleotide linkages; protein in an extract; label: biotin; single-stranded DNA.
The target of data set [4] is FOXM1 endogenous (MDA-MB-436) (UniProt Q08050). The data set is described as follows: pull-down. To be noted: phosphorothioate internucleotide linkages; protein in an extract; label: biotin; single-stranded DNA.
For data set [5], the target named is His-FOXM1 full-length (UniProt Q08050). The data set is described as follows: EMSA. To be noted: positive control; EMSA and FP: 20 mM Tris-Cl, 50 mM KCl, 10% glycerol, 0.5 mM EDTA, 0.2 mM DTT, pH 7.6, 30 min on ice; EMSA 50 nM probe, FP 10 nM probe (50 nM in Fig. 1D legend); recombinant protein; protein details: C-terminal His6 (encoded by reverse primer S6); label: 5'-FAM on forward strand (hot) or none (cold). In general terms: Mobility shift assays separate free from complexed probe on a gel.

For data set [6], the target named is GST-FOXM1 DBD (UniProt Q08050). The data set is described as follows: EMSA. To be noted: EMSA and FP: 20 mM Tris-Cl, 50 mM KCl, 10% glycerol, 0.5 mM EDTA, 0.2 mM DTT, pH 7.6, 30 min on ice; EMSA 50 nM probe, FP 10 nM probe (50 nM in Fig. 1D legend); recombinant protein; residues 225-355; protein details: N-terminal GST (pGEX-4T-1); label: 5'-FAM on forward strand (hot) or none (cold).

The target of data set [7] is His-FOXM1 full-length (UniProt Q08050). The data set is described as follows: competition with a labelled probe. The conditions noted are these: 100x cold probe vs dsDNA probe-F; EMSA and FP: 20 mM Tris-Cl, 50 mM KCl, 10% glycerol, 0.5 mM EDTA, 0.2 mM DTT, pH 7.6, 30 min on ice; EMSA 50 nM probe, FP 10 nM probe (50 nM in Fig. 1D legend); recombinant protein; protein details: C-terminal His6 (encoded by reverse primer S6); label: 5'-FAM on forward strand (hot) or none (cold).

With “TCACTTCACACCGCATCTCTACGTCCGGTTGCGCTTTCCTTT [M-FOXM1 Apt-biotin]”, the binding result is reported as “binds” in data set [1], “no binding” in data set [2], “no binding” in data set [3] and “binds” in data set [4].
In the case of “TCACTTAAAAAAAAAAAACTCATGAAAAAAAAAAAATCCTTT [M-Control Apt-biotin]”, the binding result in data set [1] is on record as “no binding”.
Take “TTTGTTTATTTGTTTGTTTATTTG (double strand) [FOXM1 dsDNA probe]”: the binding result in data set [5], in data set [6] and in data set [7] was “binds” in each case.
